{"source": "PubChem BioAssay AID743454 (Peter MacCallum Cancer Centre, 2014)", "assay": "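Genes whose loss kills vorinostat-resistant colon cancer cells under vorinostat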 (primary screen)", "system": "human HCT116-VR colon cancer cells, selected for vorinostat resistance", "knock-down reagent": "siRNA pool against human genes, 40 nM siRNA pool", "duration": "vorinostat for 24 h, read-out about 72 h after transfection", "challenge": "vorinostat at 2.5 µM final", "measurement": "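Cell viability by CellTiter-Fluor and caspase 3/7 activity by luminescence, each scaled to mock wells per plate, duplicates averaged, then robust z-scored over all plates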", "scale": "viability robust z-score: higher = more viable cells than screen typical; caspase robust z-score: higher = more caspase 3/7 activity than screen typical", "active means": "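Hits are knock-downs in viability class RV1/RV2 or caspase class CA1/CA2, excluding ones that killed cells in the no-drug cell-count arm; hits then retested with single siRNAs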", "note": "In all, the deposit lists about 18,000 reagents; shown is a random part of them. 450 of them (2.5%) count as active. 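Single biological run; no consistent viability z cut-off exists, so the class columns, not z-scores, define the calls.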 A number with no mark means an inactive call."}
{"target": "PPP1R1C", "viability hit class": "no change", "caspase hit class": "no change", "viability robust z-score": -1.18, "caspase robust z-score": 0.16}
{"target": "SCRN3", "viability hit class": "no change", "caspase hit class": "no change", "viability robust z-score": 0.2, "caspase robust z-score": -1.17}
{"target": "FZD7", "viability hit class": "no change", "caspase hit class": "no change", "viability robust z-score": 0.08, "caspase robust z-score": 0.4}
{"target": "NYX", "viability hit class": "RV2 (reduced viability) (active)", "caspase hit class": "no change", "viability robust z-score": -2.96, "caspase robust z-score": 1.58}
{"target": "CAT", "viability hit class": "no change", "caspase hit class": "no change", "viability robust z-score": 1.8, "caspase robust z-score": -0.08}
{"target": "C1QL4", "viability hit class": "no change", "caspase hit class": "no change", "viability robust z-score": 0.24, "caspase robust z-score": 0.6}
{"target": "SLC27A6", "viability hit class": "no change", "caspase hit class": "no change", "viability robust z-score": -0.1, "caspase robust z-score": -0.93}
{"target": "REC8", "viability hit class": "no change", "caspase hit class": "no change", "viability robust z-score": -0.8, "caspase robust z-score": 0.89}
{"target": "AP2M1", "viability hit class": "no change", "caspase hit class": "no change", "viability robust z-score": -0.24, "caspase robust z-score": -0.86}
{"target": "BLM", "viability hit class": "no change", "caspase hit class": "no change", "viability robust z-score": 1.05, "caspase robust z-score": -0.3}
{"target": "KDM6B", "viability hit class": "no change", "caspase hit class": "no change", "viability robust z-score": -1.39, "caspase robust z-score": -0.66}
{"target": "OR7C1", "viability hit class": "no change", "caspase hit class": "no change", "viability robust z-score": 0.1, "caspase robust z-score": -0.12}
{"target": "SGPP2", "viability hit class": "no change", "caspase hit class": "no change", "viability robust z-score": 0.1, "caspase robust z-score": -0.6}
{"target": "LYPD1", "viability hit class": "no change", "caspase hit class": "no change", "viability robust z-score": 0.42, "caspase robust z-score": 0.46}
{"target": "PHRF1", "viability hit class": "no change", "caspase hit class": "no change", "viability robust z-score": -0.91, "caspase robust z-score": 0.62}
{"target": "FAM76A", "viability hit class": "no change", "caspase hit class": "no change", "viability robust z-score": 0.37, "caspase robust z-score": 0.07}
{"target": "COL11A1", "viability hit class": "no change", "caspase hit class": "no change", "viability robust z-score": 1.28, "caspase robust z-score": 1.83}
{"target": "NYAP1", "viability hit class": "no change", "caspase hit class": "no change", "viability robust z-score": 0.04, "caspase robust z-score": -0.86}
{"target": "TAPBP", "viability hit class": "no change", "caspase hit class": "no change", "viability robust z-score": -2.76, "caspase robust z-score": -0.43}
{"target": "RHEX", "viability hit class": "no change", "caspase hit class": "no change", "viability robust z-score": -2.12, "caspase robust z-score": -0.7}
{"target": "TPSG1", "viability hit class": "no change", "caspase hit class": "no change", "viability robust z-score": 0.21, "caspase robust z-score": -0.97}
{"target": "SLC38A8", "viability hit class": "no change", "caspase hit class": "no change", "viability robust z-score": -0.46, "caspase robust z-score": -0.68}
{"target": "PLOD2", "viability hit class": "no change", "caspase hit class": "no change", "viability robust z-score": 0.29, "caspase robust z-score": -0.32}
{"target": "RAD51", "viability hit class": "no change", "caspase hit class": "no change", "viability robust z-score": -2.16, "caspase robust z-score": 0.46}
{"target": "CRTC1", "viability hit class": "no change", "caspase hit class": "no change", "viability robust z-score": -1.38, "caspase robust z-score": 2.31}
{"target": "CYB5D2", "viability hit class": "no change", "caspase hit class": "no change", "viability robust z-score": 0.7, "caspase robust z-score": -0.48}
{"target": "TRPV3", "viability hit class": "no change", "caspase hit class": "no change", "viability robust z-score": -0.86, "caspase robust z-score": 3.06}
